Reference: publication PMC8257704
These are yes or no findings as the source states them, for the method shown. In cells and extracts the contact can be indirect. Some results given as binding are weak or reduced against the parent protein; the word gives no strength.

Amino acid sequences for entries named in this document (tags omitted).
UniProt Q5SF07: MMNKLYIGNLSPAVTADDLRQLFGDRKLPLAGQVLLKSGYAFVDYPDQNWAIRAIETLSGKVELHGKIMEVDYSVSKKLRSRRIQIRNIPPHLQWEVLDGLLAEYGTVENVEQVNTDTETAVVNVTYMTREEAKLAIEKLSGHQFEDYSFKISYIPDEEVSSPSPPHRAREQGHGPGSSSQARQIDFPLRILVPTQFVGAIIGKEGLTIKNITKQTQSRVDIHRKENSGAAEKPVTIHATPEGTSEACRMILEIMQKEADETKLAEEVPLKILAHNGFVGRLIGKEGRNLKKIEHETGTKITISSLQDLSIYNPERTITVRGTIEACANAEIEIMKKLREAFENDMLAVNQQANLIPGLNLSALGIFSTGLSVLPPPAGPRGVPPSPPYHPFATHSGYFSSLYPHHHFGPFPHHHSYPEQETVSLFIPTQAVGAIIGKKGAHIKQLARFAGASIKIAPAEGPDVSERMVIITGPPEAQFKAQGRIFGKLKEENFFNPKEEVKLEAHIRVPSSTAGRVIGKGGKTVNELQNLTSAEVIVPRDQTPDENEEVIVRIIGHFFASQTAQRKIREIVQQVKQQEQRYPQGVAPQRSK
UniProt Q8CJG0: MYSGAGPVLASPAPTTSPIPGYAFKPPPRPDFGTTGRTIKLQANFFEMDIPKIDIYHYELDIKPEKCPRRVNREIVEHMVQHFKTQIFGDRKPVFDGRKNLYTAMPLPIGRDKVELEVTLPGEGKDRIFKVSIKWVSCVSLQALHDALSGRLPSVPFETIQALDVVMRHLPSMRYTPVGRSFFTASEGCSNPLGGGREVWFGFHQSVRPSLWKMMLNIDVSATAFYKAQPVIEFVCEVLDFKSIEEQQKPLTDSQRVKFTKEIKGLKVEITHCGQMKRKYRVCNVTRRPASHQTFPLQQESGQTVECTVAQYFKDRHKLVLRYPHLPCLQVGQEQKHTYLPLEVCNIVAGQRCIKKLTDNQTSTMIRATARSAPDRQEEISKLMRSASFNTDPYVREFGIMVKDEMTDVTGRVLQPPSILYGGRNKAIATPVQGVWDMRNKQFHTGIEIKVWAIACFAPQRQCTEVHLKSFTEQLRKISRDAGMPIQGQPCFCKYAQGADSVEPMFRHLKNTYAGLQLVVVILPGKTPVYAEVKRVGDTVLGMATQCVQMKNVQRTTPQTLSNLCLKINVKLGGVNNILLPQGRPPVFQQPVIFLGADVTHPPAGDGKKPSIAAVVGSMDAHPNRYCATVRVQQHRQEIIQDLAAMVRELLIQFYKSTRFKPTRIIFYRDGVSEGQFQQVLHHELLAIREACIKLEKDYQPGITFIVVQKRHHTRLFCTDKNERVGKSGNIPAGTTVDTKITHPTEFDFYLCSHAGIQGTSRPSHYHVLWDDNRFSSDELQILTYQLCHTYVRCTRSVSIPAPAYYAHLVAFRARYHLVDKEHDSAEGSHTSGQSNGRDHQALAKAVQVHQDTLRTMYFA

What was measured:
[1] = biological target: Insulin-like growth factor 2 mRNA binding protein 2 (mouse (endogenous in neonatal mouse cardiomyocytes)) (UniProt Q5SF07); assay: co-IP; neonatal mouse cardiomyocytes lysed in RIPA buffer; immunoprecipitated with AGO2 or IGF2BP2 antibody or the corresponding IgG, Protein A/G Magnetic Beads, washed three times, western blotting
[2] = biological target: Argonaute 2 (mouse (endogenous in neonatal mouse cardiomyocytes)) (UniProt Q8CJG0); assay: as above

Row | binding [1] | binding [2] | Substance
1 | binds |  | Argonaute 2 (from UniProt Q8CJG0 1-860)
2 |  | binds | Insulin-like growth factor 2 mRNA binding protein 2 (from UniProt Q5SF07 1-592)
